Measurements published in paper PMC9779606, “Synthesis, Structural Characterization and Biological Activity Evaluation of Novel Cu(II) Complexes with 3-(trifluoromethyl)phenylthiourea Derivatives” (International Journal of Molecular Sciences, 2022).

Tests used:
Assay in all cases: Cytotoxicity, MTT assay
Type in all cases: cell-based, human
Settings in all cases: SI = IC50 for normal cell line (HaCaT)/IC50 cancer cell line
[1] = tested on: SW480 (primary colon cancer)
Procedure: (§1) MTT assay was performed as previously described. Experiments were repeated three times. […] Decreased relative MTT level means decreased cell viability.

[2] = tested on: SW620 (metastatic colon cancer)
Procedure: as §1

[3] = tested on: PC3 (metastatic prostate cancer)
Procedure: as §1

| Structure (SMILES) | SI SW480 (Selectivity Index) [1] | SI SW620 (Selectivity Index) [2] | SI PC3 (Selectivity Index) [3] |
| --- | --- | --- | --- |
| CC(NC(=S)[N-]c1cccc(C(F)(F)F)c1)c1ccccc1.CC(NC(=S)[N-]c1cccc(C(F)(F)F)c1)c1ccccc1.[Cu+2] (racemic) [Cu2, Copper(II) Complex with 1-(1-phenylethyl)-3-[3-(trifluoromethyl)phenyl]thiourea] | 5.3 | 9.4 | 2.4 |
| FC(F)(F)c1cccc([N-]C(=S)Nc2cccc(Br)c2)c1.FC(F)(F)c1cccc([N-]C(=S)Nc2cccc(Br)c2)c1.[Cu+2] [Cu4, Copper(II) Complex with 1-(3-bromophenyl)-3-[3-(trifluoromethyl)phenyl] thiourea] | 4.3 | 5.6 | 5.5 |
| FC(F)(F)c1cccc([N-]C(=S)NCc2ccccc2)c1.FC(F)(F)c1cccc([N-]C(=S)NCc2ccccc2)c1.[Cu+2] [Cu3, Copper(II) Complex with 1-benzyl-3-[3-(trifluoromethyl)phenyl]thiourea] | 1.7 | 1.4 | 1.3 |
| O.O=[N+]([O-])c1cc(NC(=S)[N-]c2cccc(C(F)(F)F)c2)ccc1Cl.O=[N+]([O-])c1cc(NC(=S)[N-]c2cccc(C(F)(F)F)c2)ccc1Cl.[Cu+2] [Cu5, Copper(II) Complex with 1-(4-chloro-3-nitrophenyl)-3-[3-(trifluoromethyl)phenyl]thiourea] | 9.1 | 6.9 | 11.5 |
| FC(F)(F)c1cccc([N-]C(=S)NCCc2ccccc2)c1.FC(F)(F)c1cccc([N-]C(=S)NCCc2ccccc2)c1.O.[Cu+2] [Cu1, Copper(II) Complex with 1-(2-phenylethyl)-3-[3-(trifluoromethyl)phenyl]thiourea] | 6.3 | 6.8 | 4.3 |
